Consider one molecule from publication PMC4354014.

This experiment concerns the target T1, CD25, the α-chain of the IL-2 receptor (mouse, on CTLL-2 cells) (mouse (endogenous in CTLL-2)) (UniProt P01590).
T1 sequence: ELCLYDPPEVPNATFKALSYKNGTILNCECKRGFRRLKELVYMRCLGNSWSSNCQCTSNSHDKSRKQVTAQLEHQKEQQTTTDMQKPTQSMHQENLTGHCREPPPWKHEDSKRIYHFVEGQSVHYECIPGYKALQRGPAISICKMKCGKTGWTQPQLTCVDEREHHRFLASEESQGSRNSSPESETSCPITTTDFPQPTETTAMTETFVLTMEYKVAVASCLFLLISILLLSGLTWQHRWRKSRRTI
Description: flow cytometry on cells; 1 x 10^5 CTLL-2 or CTLL-2^ARTC2.2 cells with 5 ng biotinylated IL-2 in 100 μl PBS, 0.1% BSA, 60 min at 4°C, then APC-conjugated streptavidin; parallel aliquots pre-incubated with or without 500 ng unlabeled mIL-2 or 50 μM NAD+; only the binder purified.

These are yes or no findings as the source states them, for the method shown. Some entries that bind do so weakly or less than the wild type.

B1: unlabeled mouse IL-2 (ligand, UniProt P04351 21-169)
chain: APTSSSTSSSTAEAQQQQQQQQQQQQHLEQLLMDLQELLSRMENYRNLKLPRMLTFKFYLPKQATELKDLQCLEDELGPLRHVLDLTQSKSFQLEDAENFISNIRVTVVKLKGSDNTFECQFDDESATVVDFLRRWIAFCQSIISTSPQ
As for B1, the binding result is given as “binds”.
